These are yes or no findings as the source states them, for the method shown. Some binding calls cover weakened binding; strength is not graded here.
Biological target: Trypanosoma brucei brucei trypanothione reductase (T. b. brucei) (UniProt P39051)
Experiment: crystal structure; hanging drop, 20 °C, 0.1 M bis-Tris propane pH 8.0, 5% PEG 400, 2 M ammonium sulphate; 2.3 Å; two molecules per asymmetric unit; both purified

By UniProt entry, the sequences of proteins in these tests, tags left out.
UniProt P39051: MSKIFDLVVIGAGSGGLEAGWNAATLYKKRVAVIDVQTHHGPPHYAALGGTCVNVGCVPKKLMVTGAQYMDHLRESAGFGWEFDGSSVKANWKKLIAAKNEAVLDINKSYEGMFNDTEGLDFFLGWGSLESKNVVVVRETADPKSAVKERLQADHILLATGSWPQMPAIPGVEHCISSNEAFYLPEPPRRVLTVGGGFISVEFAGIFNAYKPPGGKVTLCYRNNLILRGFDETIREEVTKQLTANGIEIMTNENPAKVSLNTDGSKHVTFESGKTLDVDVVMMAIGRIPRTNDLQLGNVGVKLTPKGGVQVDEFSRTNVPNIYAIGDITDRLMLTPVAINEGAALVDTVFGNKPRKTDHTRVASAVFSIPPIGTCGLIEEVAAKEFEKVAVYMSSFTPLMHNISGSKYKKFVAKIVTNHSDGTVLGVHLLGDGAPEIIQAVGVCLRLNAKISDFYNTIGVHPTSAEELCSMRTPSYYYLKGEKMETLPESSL

## Trypanosoma brucei brucei trypanothione reductase (from UniProt P39051 1-492) (enzyme)
  binding: binds
